Measurements taken from paper PMC2890523.

Experiments:
[1] = target: PaSBDS (Pyrococcus abyssi) (UniProt Q9V121); test: EMSA; settings: 1 pmol RNA in 20 ul, 20 mM Tris-HCl pH 8.0, 20 mM KCl, 2 mM MgCl2, 1 mM DTT, 100 ug/ml BSA, 0.8 U RNasin (or conditions of earlier work, ref 21), 37 C, 30 min, recombinant protein, protein details: pET-28a vector, Ni-NTA purified (His tag), label: 5'-32P
[2] = system: PaNip7 (Pyrococcus abyssi); test: EMSA; settings: 1 pmol RNA in 20 ul, 20 mM Tris-HCl pH 8.0, 20 mM KCl, 2 mM MgCl2, 1 mM DTT, 100 ug/ml BSA, 0.8 U RNasin (or conditions of earlier work, ref 21), 37 C, 30 min, recombinant protein, label: 5'-32P

AAAAAAAAAA [poly-rA 10-mer]
binding result ([1]; binds, but longer poly-rA more efficiently): binds more weakly

AAAAAAAAAAAA [poly-rA 12-mer]
binding result ([1]; 50-400 pmol): binds

AAAAAAAAAAAAAA [poly-rA 14-mer]
binding result ([2]; 100 pmol, no band shift (text also: not with high affinity)): no binding

UUAUUAUUUAUUUAUUAUUUA [poly-rAU 21-mer]
binding result ([2]; 10-100 pmol, efficient): binds

UUUUUUUUUUUUUU [poly-rU 14-mer]
binding result ([1]; low affinity): binds more weakly

Construct, isoform or probe ends are uncertain for at least one entry. For some assays here: A negative result means that nothing was seen under these conditions. For some assays here: Weaker means in comparison with the reference protein, sequence or condition of that experiment. For some assays here: At least one verdict rests on a figure or table, not on a statement of the authors.
